Laboratory results published in publication PMC7814060.
No constants are given. Whether binding was seen depends on the method and setting. In cells and extracts the contact can be indirect.

Amino acid sequences for entries named in this document (tags omitted).
UniProt O94953: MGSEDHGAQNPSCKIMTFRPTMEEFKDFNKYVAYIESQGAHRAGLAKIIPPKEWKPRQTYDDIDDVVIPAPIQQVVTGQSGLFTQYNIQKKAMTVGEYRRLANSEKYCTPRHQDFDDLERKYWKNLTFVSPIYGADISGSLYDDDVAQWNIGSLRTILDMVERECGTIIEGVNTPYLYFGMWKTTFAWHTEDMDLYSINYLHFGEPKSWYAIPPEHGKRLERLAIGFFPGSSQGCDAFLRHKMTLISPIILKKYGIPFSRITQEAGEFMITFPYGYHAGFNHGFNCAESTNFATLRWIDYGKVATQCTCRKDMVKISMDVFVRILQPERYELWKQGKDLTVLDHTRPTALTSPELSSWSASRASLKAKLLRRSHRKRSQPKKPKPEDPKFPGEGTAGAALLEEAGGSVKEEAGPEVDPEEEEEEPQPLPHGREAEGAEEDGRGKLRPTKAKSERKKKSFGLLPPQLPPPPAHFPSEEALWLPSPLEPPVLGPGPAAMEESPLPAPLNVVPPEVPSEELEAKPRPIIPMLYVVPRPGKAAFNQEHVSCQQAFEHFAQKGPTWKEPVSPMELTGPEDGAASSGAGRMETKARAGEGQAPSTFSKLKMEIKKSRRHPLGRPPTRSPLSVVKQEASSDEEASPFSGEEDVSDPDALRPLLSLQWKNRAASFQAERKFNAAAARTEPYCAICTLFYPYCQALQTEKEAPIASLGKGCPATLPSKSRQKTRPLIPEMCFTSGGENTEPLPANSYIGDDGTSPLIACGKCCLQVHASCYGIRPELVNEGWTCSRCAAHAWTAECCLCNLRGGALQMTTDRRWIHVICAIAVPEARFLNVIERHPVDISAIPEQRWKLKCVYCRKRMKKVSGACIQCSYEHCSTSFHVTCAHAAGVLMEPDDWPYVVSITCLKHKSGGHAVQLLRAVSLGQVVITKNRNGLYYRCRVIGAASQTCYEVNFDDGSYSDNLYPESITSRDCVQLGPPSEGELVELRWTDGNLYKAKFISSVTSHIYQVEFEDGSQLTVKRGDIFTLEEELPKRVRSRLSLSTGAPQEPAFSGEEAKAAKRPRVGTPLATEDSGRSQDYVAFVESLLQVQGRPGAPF

Assays:
[1] = target: p53 (mutant, endogenous in LN215 glioblastoma cells) (human (endogenous in LN215)) (UniProt P04637); assay: co-IP; endogenous proteins; lysates of U87, LN215 and SNB19 cells incubated with anti-p53 monoclonal antibody (sc-126) at 4 °C overnight, protein A/G agarose 3 h, immunoblot
[2] = target: p53 (mutant, endogenous in SNB19 glioblastoma cells) (human (endogenous in SNB19)) (UniProt P04637); assay: as above

Row | binding [1] | binding [2] | Molecule
1 | no binding | no binding | KDM4B (endogenous in glioblastoma cells) (from UniProt O94953 1-1096)
2 | no binding | no binding | KDM4D (endogenous in glioblastoma cells) (protein, UniProt Q6B0I6 1-523) METMKSKANCAQNPNCNIMIFHPTKEEFNDFDKYIAYMESQGAHRAGLAKIIPPKEWKARETYDNISEILIATPLQQVASGRAGVFTQYHKKKKAMTVGEYRHLANSKKYQTPPHQNFEDLERKYWKNRIYNSPIYGADISGSLFDENTKQWNLGHLGTIQDLLEKECGVVIEGVNTPYLYFGMWKTTFAWHTEDMDLYSINYLHLGEPKTWYVVPPEHGQRLERLARELFPGSSRGCGAFLRHKVALISPTVLKENGIPFNRITQEAGEFMVTFPYGYHAGFNHGFNCAEAINFATPRWIDYGKMASQCSCGEARVTFSMDAFVRILQPERYDLWKRGQDRAVVDHMEPRVPASQELSTQKEVQLPRRAALGLRQLPSHWARHSPWPMAARSGTRCHTLVCSSLPRRSAVSGTATQPRAAAVHSSKKPSSTPSSTPGPSAQIIHPSNGRRGRGRPPQKLRAQELTLQTPAKRPLLAGTTCTASGPEPEPLPEDGALMDKPVPLSPGLQHPVKASGCSWAPVP
